# PubChem BioAssay AID1259424 | University of Nebraska Medical Center, 2018
# Aim: 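Seek colon cancer survival genes behaving like KSR1, using a six-gene signature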 (primary screen)
# Cells: human HCT116 colon cancer cells
# Reagent: siRNA pool against human genes, 50 nM
# Measurement: 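Six signature mRNAs by branched-DNA multiplex assay, scaled to two housekeeping genes and non-targeting median, log2; matched to mean KSR1 knockdown profile by Pearson correlation and euclidean distance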
# Scale: mean correlation with KSR1 profile and KSR1 correlation: higher = expression change more like KSR1 knockdown; mean distance from KSR1 profile: higher = expression change less like KSR1 knockdown
# Here is a random part of about 14,000 reagents. 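Higher correlation or smaller distance means closer resemblance to KSR1 loss; control wells, including KSR1 knockdowns, recur on many plates.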 Further read-outs or replicates are left out here. Reagent sequences are not shown. The record does not give: the time to read-out.
gene knocked down,mean correlation with KSR1 profile,mean distance from KSR1 profile,"KSR1 correlation, replicate 1"
CRISP1,-0.733,3.91,-0.667
FAM106A,0.277,1.8,0.354
GDI1,-0.027,2.3,0.0358
SLC16A5,-0.69,3.44,-0.735
LPO,0.871,1.48,0.822
DRG1,-0.0796,1.85,-0.0466
C3,0.134,2.12,0.169
TMEM117,0.00221,2.7,-0.0602
HIP1R,0.0118,1.44,0.297
CDKL2,0.425,2.49,0.486
SLC67A2,0.543,1.76,0.407
MAMDC4,-0.351,1.53,-0.755
IRX4,0.171,1.91,0.723
AFDN,0.271,1.83,0.0779
BIRC7,-0.00489,2.22,0.0479
TAF4B,0.319,1.15,0.717
TAS2R60,0.238,2.78,0.232
CFAP45,0.161,2.41,-0.174
OR2L2,-0.295,2.44,-0.146
FES,-0.249,2.51,0.00753

No new results follow: 2 of the entries above.
gene knocked down,mean correlation with KSR1 profile,mean distance from KSR1 profile,"KSR1 correlation, replicate 1"
FAM106A,0.277,1.8,0.354
GDI1,-0.027,2.3,0.0358
